# In all, about 33,000 sequences were measured (“E-score (-0.5 to 0.5)”: median about -0.0059, highest 2% from about 0.26 on). This is one part of the list.
# Target: T1, Cin5 (UniProt P40917)
# T1 sequence: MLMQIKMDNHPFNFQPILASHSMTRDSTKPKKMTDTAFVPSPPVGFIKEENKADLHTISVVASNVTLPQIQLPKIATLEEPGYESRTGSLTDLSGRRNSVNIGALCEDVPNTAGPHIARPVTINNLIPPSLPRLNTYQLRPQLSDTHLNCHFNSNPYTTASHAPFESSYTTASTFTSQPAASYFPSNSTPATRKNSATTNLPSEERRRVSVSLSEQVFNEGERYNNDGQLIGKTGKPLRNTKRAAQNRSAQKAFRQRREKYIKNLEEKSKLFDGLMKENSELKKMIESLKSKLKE
# Test: PBM E-score (8-mer binding enrichment) (E-score (-0.5 to 0.5)); higher = stronger / more preferred TF binding
# Details: protein concentration: 100 nM; construct: GST-full length
# Method in brief: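 GST-tagged yeast TFs (full-length or DNA-binding domain) were made by PURExpress in vitro transcription/translation and applied at about 100-200 nM to universal all-10-mer Agilent arrays. The arrays were made double-stranded by primer extension, on fresh or once-stripped slides. Bound protein was detected with fluorescent anti-GST, and scans were normalised with masliner. Each ungapped eight-base word, pooled with its reverse complement, received an E-score (modified Wilcoxon-Mann-Whitney statistic) from the Universal PBM Analysis Suite.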
row,Sequence,PBM E-score
1,AGCCTAGG,-0.28
2,GGTATCAC,0.0115
3,GGCATCAC,-0.114
4,ACTTAATC,0.133
5,ACGATTGC,0.153
6,GTCACCTA,-0.196
7,GTCAGTCA,-0.0842
8,CTGTATAC,0.116
9,GCGCTGAC,0.187
10,CTGCACCC,-0.169
11,ATGACGGC,-0.0843
12,CGAGGAAA,0.0743
13,CTATTTTC,0.0963
14,CGCAGACA,0.0507
15,CATAGTGA,-0.0441
16,ATGGTCAA,0.128
17,CATCCCAG,-0.148
18,ATATTCCA,0.274
19,CATATACA,0.187
20,CTAGGTAC,-0.121
21,GGATGCCC,-0.237
22,ACCGAGCT,-0.0745
23,TCGTTGAA,-0.0113
24,AAATCCTC,-0.137
25,ATAACTCC,-0.086

row,Sequence,PBM E-score
1,AAGGTACA,-0.0396
2,CGCTAAAG,0.0272
3,AAAAGTCA,-0.0391
4,CAAAGAGA,-0.0122
5,ACTTGTGC,-0.0651
6,AGATATGC,0.0698
7,AAGCGTCC,-0.159
8,CAGCAGAG,-0.0898
9,GCTGGCCC,-0.269
10,CTTTACAC,0.0902
11,CGGCTAGA,-0.144
12,ACCGGACA,-0.157
13,ACGTGGAC,-0.0526
14,CAAAGCCC,-0.137
15,AGGAGTTG,-0.108
16,AACCTTCA,0.0563
17,AAGCATAT,0.13
18,AACAAGGT,0.00268
19,ATAAATTC,0.0845
20,CCGCACTC,0.147
21,AAGTCTAC,0.0186
22,GCCCCAGA,-0.212
23,CCACACCC,-0.0164
24,CATGATCG,0.088
25,CAGGCTAC,-0.00917

row,Sequence,PBM E-score
1,CGCATATC,0.247
2,CTGGTCAC,-0.107
3,TACTCCCA,0.0334
4,CATAACTC,-0.015
5,CAGGCAAC,-0.0103
6,AGCCTACC,-0.228
7,CGTGTCGA,-0.179
8,GCAATAAA,0.16
9,AATATACG,0.11
10,CGTACCGC,-0.0476
11,AACCGACA,0.038
12,CAATTTGG,0.0328
13,ACACGGGA,0.00195
14,GCTTGTCA,-0.0215
15,CTCCCACA,-0.169
16,CGGAATCA,0.27
17,CACGTATG,-0.0843
18,GGCCTTCA,-0.137
19,AAATGGAG,0.0584
20,ACCACCCT,-0.163
21,CTATGGGC,-0.051
22,ATCGGCAC,-0.00711
23,CCCCGCGC,-0.0233
24,GCCCGGGA,-0.128
25,AACACTTC,0.172

row,Sequence,PBM E-score
1,CCAAGTTC,0.0755
2,GTGTTCCA,-0.103
3,CGGCCCTA,-0.0802
4,GTAAACTA,0.132
5,GCCGCTCA,-0.13
6,GCACCAGC,-0.172
7,ACGGGAGG,-0.169
8,CAACGAAA,0.182
9,GTTAATCA,0.239
10,TCTTACAA,0.0121
11,ATTAGGAC,-0.115
12,AGTTGCGG,0.237
13,AGCCGTGA,0.05
14,ACGCCCTA,-0.261
15,ACAGTTAA,0.17
16,GCACCAAA,0.0873
17,ATCCAGAC,0.0041
18,AGAGGTGA,0.101
19,CTTAGTAC,0.0461
20,ATGGAACG,-0.00049
21,AGTTAATC,0.2
22,AGTCAACG,-0.0325
23,GAAAACAC,-0.0644
24,ATCTGACG,-0.00476
25,CGTATAAG,0.0145

row,Sequence,PBM E-score
1,ACGACAGC,0.0108
2,CGATTAAG,0.092
3,CACCCTAG,0.00459
4,AATAGATT,0.125
5,ATAATGTG,0.134
6,ATCGCATG,0.108
7,AATGTGGC,0.0846
8,AAGATACT,0.115
9,ACCCTCAG,0.0274
10,GCGAGCGA,0.0335
11,ATATTCTC,0.235
12,CATATGAC,-0.0298
13,GAGTTACA,0.232
14,CCCATATA,0.178
15,GGGACACA,0.0855
16,AGTGAAAC,0.118
17,CATTATGC,0.155
18,CCCATCCG,-0.0498
19,GAGCCACC,-0.354
20,ATGCAAAA,0.165
21,TCTGAAAA,0.0776
22,CATATAAA,0.138
23,CGGATCTC,-0.053
24,CATCACCG,0.0152
25,CTCTCGGA,0.0455

row,Sequence,PBM E-score
1,CCTCGAAC,-0.0958
2,GCACTTCA,0.094
3,GTAAGCCA,0.264
4,AAGCGGAA,0.2
5,CATCATGC,0.14
6,GACGCAAC,-0.163
7,AAGTCCAT,-0.091
8,ACAAGGTC,-0.041
9,ATCCATCC,0.0833
10,ATTTCTTG,0.133
11,CAACCCAC,0.0689
12,AACCCAAT,0.00173
13,CCCTGTAC,-0.116
14,CCTCGTGA,-0.128
15,ATTCACGG,-0.0451
16,AGCTAGTG,-0.0149
17,GTTAAGAA,-0.0647
18,AATGGACA,0.0126
19,TGTTATAA,0.24
20,GCGGAGAA,0.029
21,CGCAAGTA,0.109
22,AACCGAAC,-0.0782
23,CCGCTCGA,-0.0568
24,CCTGTCTA,-0.126
25,CGGTGAGC,-0.148

row,Sequence,PBM E-score
1,ATAGTGTC,0.0674
2,CAACTCCC,0.0769
3,AAGTTCAC,0.0299
4,CGCTTCGC,-0.133
5,CCTGGCGC,-0.0837
6,AGTTCACG,-0.149
7,CCGACAAA,0.0778
8,CCGAGAAG,-0.0618
9,CGTGTACA,0.155
10,CACTTTAA,0.159
11,ATACCACG,0.0683
12,AGATTCGC,-0.0341
13,ATGGCGTG,0.126
14,CCTAGACG,-0.162
15,CTAATTTA,0.158
16,CACTGCAG,-0.0359
17,GAAAGCGC,-0.147
18,GAACCTTC,-0.0397
19,ACCAAAGT,0.00958
20,AACCAGTG,-0.124
21,CGAAGCAG,-0.0936
22,ACAGCTGG,-0.0712
23,TTCCTCAA,-0.0594
24,GTAAAAGA,0.0603
25,AGGAGCCA,-0.193

row,Sequence,PBM E-score
1,AACACTCA,0.182
2,TGGTGGAA,-0.0761
3,ACAGGCCG,-0.134
4,GAGTACTC,0.0898
5,GCAGTGTA,-0.126
6,AGTCTCCG,0.13
7,GCTGCCAC,-0.142
8,AAGGACAT,-0.159
9,GAAAAATA,0.158
10,AGATACTC,0.14
11,ACTGACGA,-0.0541
12,TAAGTTAA,0.175
13,ACATCGCG,-0.0247
14,GATTGTGC,0.00566
15,CCTGCCGC,-0.267
16,TCGGTAAA,0.0995
17,ACCAGCTC,-0.0121
18,CGTCAACG,-0.14
19,AAAATCCT,-0.223
20,ATGCCCGG,-0.11
21,CCTGGATA,-0.223
22,ACCTTTTA,-0.188
23,CCGCCGCG,-0.128
24,ATCCTTTG,0.131
25,GATCGGCC,-0.242

row,Sequence,PBM E-score
1,CACTTTTC,0.155
2,GTATGCAC,-0.0543
3,ACCACGGG,-0.131
4,AATTTTAC,0.11
5,GTGTTATA,0.101
6,CCAAAAAG,-0.0799
7,GTTGGGTA,0.0626
8,CCCAAGGC,-0.0737
9,GGAGGCTA,-0.236
10,ATAATCGC,0.187
11,ACATTAAG,0.0877
12,CCCGCCGA,-0.0686
13,ACCGGTTA,0.056
14,CATAACCC,0.0376
15,GAATTGTA,-0.0336
16,CTTGCAAA,0.109
17,AGAAACAA,0.229
18,CAGATGCA,-0.076
19,AACCACGA,-0.00917

# Part of the list above, as tab-separated lines.
row	Sequence	PBM E-score
1	AACACTCA	0.182
2	TGGTGGAA	-0.0761
3	ACAGGCCG	-0.134
4	GAGTACTC	0.0898
5	GCAGTGTA	-0.126
6	AGTCTCCG	0.13
7	GCTGCCAC	-0.142
8	AAGGACAT	-0.159
9	GAAAAATA	0.158
10	AGATACTC	0.14
11	ACTGACGA	-0.0541
12	TAAGTTAA	0.175
13	ACATCGCG	-0.0247
14	GATTGTGC	0.00566
16	TCGGTAAA	0.0995
17	ACCAGCTC	-0.0121
18	CGTCAACG	-0.14
19	AAAATCCT	-0.223
20	ATGCCCGG	-0.11
21	CCTGGATA	-0.223
22	ACCTTTTA	-0.188
23	CCGCCGCG	-0.128
24	ATCCTTTG	0.131
25	GATCGGCC	-0.242
1	CACTTTTC	0.155
2	GTATGCAC	-0.0543
3	ACCACGGG	-0.131
4	AATTTTAC	0.11
5	GTGTTATA	0.101
6	CCAAAAAG	-0.0799
7	GTTGGGTA	0.0626
8	CCCAAGGC	-0.0737
9	GGAGGCTA	-0.236
10	ATAATCGC	0.187
11	ACATTAAG	0.0877
12	CCCGCCGA	-0.0686
13	ACCGGTTA	0.056
14	CATAACCC	0.0376
16	CTTGCAAA	0.109
17	AGAAACAA	0.229
18	CAGATGCA	-0.076
19	AACCACGA	-0.00917
